# In PubChem BioAssay AID2685 (National Center for Advancing Translational Sciences (NCATS), 2010):
# The other results are listed elsewhere or left out. Further columns of the screen follow, without active or inactive calls. Compounds called inactive in the main read-out are mostly missing here. Potencies come from curve fits of mixed quality, noted in brackets.
# Test: qHTS Assay for Lipid Storage Modulators in Drosophila S3 Cells;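 on cell number change: cells counted by Cell Tracker Red CMTPX staining in the red channel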
# Conditions: BODIPY lipid droplet fluorescence, 18-24 h; for cell number change: measured here: cell count max response, cells fed with added oleic acid
# Summary of the method: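 Laser-scanning cytometry quantifies lipid droplet accumulation (500–530 nm total intensity; droplet/cell object ratio) in oleic acid-fed (400 uM added) Drosophila S3 cells treated with a concentration series. 20 uM Triacsin C defined 100% inhibition.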
# [1] = measured here: lipid fluorescence (Fed channel) AC50, cells fed with added oleic acid
# [2] = measured here: cell number channel AC50, cells fed with added oleic acid
Compound,cell number change,AC50 [1],AC50 [2]
COc1ccc(NC(=O)CN2CCN(S(=O)(=O)c3ccc(F)cc3)CC2)cc1Cl,25%,–,–
N/C(=N\OC(=O)Cc1cccc2ccccc12)c1ccccn1,13.8%,–,–
Cc1cc(N2CCN(C)CC2)nc2ccc(NC(=O)CCC(=O)N3CCN(c4ccc([N+](=O)[O-])cc4)CC3)cc12,-24.6%,"4.11 µM [rising, single point]",–
O=C(CSc1nnc(-c2ccco2)o1)N1CCOCC1,-11.6%,"29.1 µM [falling, single point]",–
CC1Cc2ccccc2N1C(=O)CCNS(=O)(=O)c1ccc2c(c1)CCC(=O)N2 (stereo not drawn),47.4%,"0.00517 µM [rising, full curve, poor fit]","4.61 µM [rising, full curve]"
N#Cc1c(SCc2ccccc2)nc(N2CCOCC2)c2c1CCCC2,-10.1%,–,–
CN(C)C1=NC(=O)/C(=C/c2ccc(-c3ccc(S(N)(=O)=O)cc3)o2)S1,–,"0.58 µM [rising, single point]",–
c1ccc(COc2ccc3nocc3c2)cc1,13.6%,"20.6 µM [rising, single point]",–
CC(C)(C)c1ccc(OCc2ccc(C(=O)N/N=C3\CC4CC=CC34)cc2)cc1 (stereo not drawn),-9.96%,"29.1 µM [falling, single point]",–
CC1(C2CC2)NC(=O)N(CC(=O)Nc2ccc(C(F)(F)F)cc2)C1=O (stereo not drawn),-21.1%,"4.11 µM [falling, full curve, poor fit]",–
NNC(=O)CN1C(=O)Nc2ccc(Cl)cc2C1c1ccccc1 (stereo not drawn),-7.8%,"0.116 µM [falling, full curve, poor fit]",–
CCN(CC)CC(=O)NC12CC3CC(CC(C3)C1)C2,-61.6%,"29.1 µM [falling, single point]","16.4 µM [falling, partial curve]"
CCO/C=C1/C(=O)N(c2ccc(OC)cc2)C(=O)c2ccccc21,–,"18.4 µM [falling, partial curve]",–
COCCNc1nnc(Cc2ccccc2)c(=O)[nH]1,-17.4%,–,–
COc1ccc(CC(=O)NC(C)CCc2ccccc2)cc1 (stereo not drawn),20%,"0.00517 µM [rising, full curve, poor fit]","0.0366 µM [rising, full curve, poor fit]"
O=C(CCNC(=O)c1ccccc1)NC1CCCc2ccccc21 (stereo not drawn),-13%,–,–

Compound,cell number change,AC50 [1],AC50 [2]
COc1ccccc1-c1cc(C(F)(F)F)nc(N2CCOCC2)n1,-24.4%,–,–
CCCCC(=O)N(Cc1ccc(-c2ccccc2-c2nn[nH]n2)cc1)[C@H](C(=O)O)C(C)C,35.8%,–,"29.1 µM [rising, single point]"
O=C(COC(=O)c1cc(Cl)ccc1O)Nc1ccc2c(c1)OCCO2,-0.688%,"11.6 µM [rising, partial curve, poor fit]",–
CCn1c2ccccc2c2cc(NC(=O)C(C)OC(=O)c3ccc(NC(=O)CC#N)cc3)ccc21 (stereo not drawn),-37.8%,"0.0651 µM [rising, full curve, poor fit]","29.1 µM [falling, single point]"
O=C(CNC1=NCCC1)c1ccc2c(c1)OCCO2,-0.98%,"0.13 µM [falling, full curve]",–
Cc1ccc(/C(O)=C2\C(=O)C(=O)N(CC(C)O)C2c2cccc(F)c2)cc1 (stereo not drawn),23.2%,–,–
O=C(CN1C2CCC1CC(NC(=O)NC1CCCCC1)C2)NC1CC1 (stereo not drawn),-15.7%,"3.26 µM [falling, partial curve, poor fit]","2.91 µM [falling, partial curve]"
O=c1[nH]cccc1-c1nc2ccccc2n1Cc1ccc(Cl)cc1,10%,"0.291 µM [rising, single point]",–
COCCCn1c(C)c(C(C)=O)cc(NC(=O)c2ccccc2)c1=O,22%,–,–
O=C(/C=C/c1ccc([N+](=O)[O-])cc1)N1CCN(S(=O)(=O)c2cccs2)CC1,-38.7%,"29.1 µM [falling, single point]","29.1 µM [falling, single point]"
Cn1ccnc1SCC(=O)Nc1ccc([N+](=O)[O-])cn1,2.76%,"0.58 µM [falling, single point]",–
CCCCOc1ccc(N(CC(=O)NC(C)(C)C)C(=O)CCC(=O)Nc2nccs2)cc1,10.4%,"0.461 µM [falling, single point]",–
C(#Cc1ccccc1)C[N+]1(CC#Cc2cccc3ccccc23)CCCC1,-59%,"23.1 µM [falling, partial curve]","32.6 µM [falling, single point]"
CC1(C(=O)N2CCC(CC3CC(c4ccc(Cl)cc4)=NO3)(C(=O)NCC3CCCCC3)CC2)CC1 (stereo not drawn),23.6%,–,–
S=C(Nc1ccc2c(c1)OCO2)Nc1ccc2c(c1)OCO2,9.62%,"25.9 µM [rising, partial curve, poor fit]",–

# Some of these compounds in order of number of heavy atoms, rising.
Compound,cell number change,AC50 [1],AC50 [2]
CN(C)C1=NC(=O)/C(=C/c2ccc(-c3ccc(S(N)(=O)=O)cc3)o2)S1,–,"0.58 µM [rising, single point]",–
O=C(/C=C/c1ccc([N+](=O)[O-])cc1)N1CCN(S(=O)(=O)c2cccs2)CC1,-38.7%,"29.1 µM [falling, single point]","29.1 µM [falling, single point]"
CC1Cc2ccccc2N1C(=O)CCNS(=O)(=O)c1ccc2c(c1)CCC(=O)N2 (stereo not drawn),47.4%,"0.00517 µM [rising, full curve, poor fit]","4.61 µM [rising, full curve]"
